At least one compound was matched to its structure with a doubt left.
Legend:
[1] = tested on: neonatal rat cardiomyocytes; assay: Cell viability by cellular ATP content in hypoxic neonatal cardiomyocytes; type: cell-based; settings: 1 h pretreatment with LY294002 (10 M), wortmannin (1 M) or Akt inhibitor (1 M); cells infected with Adv-GFP-MG53
perfused wt mouse hearts = assay: Ischemia/reperfusion with or without IPC in Langendorff-perfused mouse hearts (infarct size, LDH release); settings: LY294002 (5 μM) 10 min before IR or IPC+IR; 30 min ischemia and 2 h reperfusion

| SMILES | cardiomyocyte protection mediated by MG53-overexpression (cell viability, cellular ATP content) [1] | IPC-mediated protection in the wt heart (infarct size, LDH release) (perfused wt mouse hearts) |
| --- | --- | --- |
| COC[C@H]1OC(=O)c2coc3c2[C@@]1(C)C1=C(C3=O)[C@@H]2CCC(=O)[C@@]2(C)C[C@H]1OC(C)=O [wortmannin] | largely abrogated | – |
| O=c1cc(N2CCOCC2)oc2c(-c3ccccc3)cccc12 [LY294002] | largely abrogated | completely abolished |
